This is a selection; strong and weak results do not stand in their true shares. This is a noisy data set.

Sequences of proteins named here, by UniProt entry; tags and fusion partners are left off. A change or cut given only in a name is not applied to a line headed by its entry.
UniProt Q96F86: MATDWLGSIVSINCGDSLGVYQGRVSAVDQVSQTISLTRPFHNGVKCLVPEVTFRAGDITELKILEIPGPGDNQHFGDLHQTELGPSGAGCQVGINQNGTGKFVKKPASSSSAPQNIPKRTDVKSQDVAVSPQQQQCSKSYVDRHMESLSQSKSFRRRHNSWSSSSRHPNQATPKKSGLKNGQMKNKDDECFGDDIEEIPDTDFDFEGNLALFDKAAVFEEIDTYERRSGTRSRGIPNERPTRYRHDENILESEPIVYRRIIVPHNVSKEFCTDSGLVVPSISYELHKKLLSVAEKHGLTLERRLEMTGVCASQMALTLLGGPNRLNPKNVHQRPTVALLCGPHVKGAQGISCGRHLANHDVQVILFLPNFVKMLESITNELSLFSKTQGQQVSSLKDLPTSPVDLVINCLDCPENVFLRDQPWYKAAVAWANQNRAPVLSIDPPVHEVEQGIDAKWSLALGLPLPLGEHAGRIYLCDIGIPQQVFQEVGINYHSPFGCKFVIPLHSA
UniProt Q96CS3: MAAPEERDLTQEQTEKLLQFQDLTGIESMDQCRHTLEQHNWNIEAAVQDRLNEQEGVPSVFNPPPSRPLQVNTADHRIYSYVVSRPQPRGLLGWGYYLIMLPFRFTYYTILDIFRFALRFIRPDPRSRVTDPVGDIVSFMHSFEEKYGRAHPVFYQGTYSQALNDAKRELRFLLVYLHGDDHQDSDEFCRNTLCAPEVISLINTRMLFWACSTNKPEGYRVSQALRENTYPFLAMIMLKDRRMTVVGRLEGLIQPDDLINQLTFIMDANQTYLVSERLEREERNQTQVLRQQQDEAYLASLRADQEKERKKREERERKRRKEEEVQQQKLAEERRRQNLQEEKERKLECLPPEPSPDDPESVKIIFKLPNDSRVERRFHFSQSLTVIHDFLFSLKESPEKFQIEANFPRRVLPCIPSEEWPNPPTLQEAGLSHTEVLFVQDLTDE
UniProt Q96B01: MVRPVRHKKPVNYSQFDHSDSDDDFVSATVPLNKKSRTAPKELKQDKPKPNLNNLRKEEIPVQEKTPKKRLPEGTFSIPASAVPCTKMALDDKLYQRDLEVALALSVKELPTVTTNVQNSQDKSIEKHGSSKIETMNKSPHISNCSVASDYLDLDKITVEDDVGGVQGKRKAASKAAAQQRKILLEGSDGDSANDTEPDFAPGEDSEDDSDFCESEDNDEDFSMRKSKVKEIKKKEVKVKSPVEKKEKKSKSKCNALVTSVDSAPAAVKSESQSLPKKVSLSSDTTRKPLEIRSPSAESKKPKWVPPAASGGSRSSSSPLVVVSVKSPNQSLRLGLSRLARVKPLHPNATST
UniProt Q92785, whole entry, looked up: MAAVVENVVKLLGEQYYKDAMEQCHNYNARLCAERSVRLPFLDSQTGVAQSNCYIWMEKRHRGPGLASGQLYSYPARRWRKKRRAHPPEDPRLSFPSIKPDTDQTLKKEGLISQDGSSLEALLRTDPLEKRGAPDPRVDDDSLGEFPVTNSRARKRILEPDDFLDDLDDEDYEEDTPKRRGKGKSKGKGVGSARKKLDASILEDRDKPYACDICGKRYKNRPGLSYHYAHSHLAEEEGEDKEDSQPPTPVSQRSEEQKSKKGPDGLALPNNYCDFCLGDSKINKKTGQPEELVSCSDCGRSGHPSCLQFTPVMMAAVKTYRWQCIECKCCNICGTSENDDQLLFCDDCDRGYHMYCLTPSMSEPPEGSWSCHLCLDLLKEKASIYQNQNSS
UniProt Q93074, whole entry, looked up: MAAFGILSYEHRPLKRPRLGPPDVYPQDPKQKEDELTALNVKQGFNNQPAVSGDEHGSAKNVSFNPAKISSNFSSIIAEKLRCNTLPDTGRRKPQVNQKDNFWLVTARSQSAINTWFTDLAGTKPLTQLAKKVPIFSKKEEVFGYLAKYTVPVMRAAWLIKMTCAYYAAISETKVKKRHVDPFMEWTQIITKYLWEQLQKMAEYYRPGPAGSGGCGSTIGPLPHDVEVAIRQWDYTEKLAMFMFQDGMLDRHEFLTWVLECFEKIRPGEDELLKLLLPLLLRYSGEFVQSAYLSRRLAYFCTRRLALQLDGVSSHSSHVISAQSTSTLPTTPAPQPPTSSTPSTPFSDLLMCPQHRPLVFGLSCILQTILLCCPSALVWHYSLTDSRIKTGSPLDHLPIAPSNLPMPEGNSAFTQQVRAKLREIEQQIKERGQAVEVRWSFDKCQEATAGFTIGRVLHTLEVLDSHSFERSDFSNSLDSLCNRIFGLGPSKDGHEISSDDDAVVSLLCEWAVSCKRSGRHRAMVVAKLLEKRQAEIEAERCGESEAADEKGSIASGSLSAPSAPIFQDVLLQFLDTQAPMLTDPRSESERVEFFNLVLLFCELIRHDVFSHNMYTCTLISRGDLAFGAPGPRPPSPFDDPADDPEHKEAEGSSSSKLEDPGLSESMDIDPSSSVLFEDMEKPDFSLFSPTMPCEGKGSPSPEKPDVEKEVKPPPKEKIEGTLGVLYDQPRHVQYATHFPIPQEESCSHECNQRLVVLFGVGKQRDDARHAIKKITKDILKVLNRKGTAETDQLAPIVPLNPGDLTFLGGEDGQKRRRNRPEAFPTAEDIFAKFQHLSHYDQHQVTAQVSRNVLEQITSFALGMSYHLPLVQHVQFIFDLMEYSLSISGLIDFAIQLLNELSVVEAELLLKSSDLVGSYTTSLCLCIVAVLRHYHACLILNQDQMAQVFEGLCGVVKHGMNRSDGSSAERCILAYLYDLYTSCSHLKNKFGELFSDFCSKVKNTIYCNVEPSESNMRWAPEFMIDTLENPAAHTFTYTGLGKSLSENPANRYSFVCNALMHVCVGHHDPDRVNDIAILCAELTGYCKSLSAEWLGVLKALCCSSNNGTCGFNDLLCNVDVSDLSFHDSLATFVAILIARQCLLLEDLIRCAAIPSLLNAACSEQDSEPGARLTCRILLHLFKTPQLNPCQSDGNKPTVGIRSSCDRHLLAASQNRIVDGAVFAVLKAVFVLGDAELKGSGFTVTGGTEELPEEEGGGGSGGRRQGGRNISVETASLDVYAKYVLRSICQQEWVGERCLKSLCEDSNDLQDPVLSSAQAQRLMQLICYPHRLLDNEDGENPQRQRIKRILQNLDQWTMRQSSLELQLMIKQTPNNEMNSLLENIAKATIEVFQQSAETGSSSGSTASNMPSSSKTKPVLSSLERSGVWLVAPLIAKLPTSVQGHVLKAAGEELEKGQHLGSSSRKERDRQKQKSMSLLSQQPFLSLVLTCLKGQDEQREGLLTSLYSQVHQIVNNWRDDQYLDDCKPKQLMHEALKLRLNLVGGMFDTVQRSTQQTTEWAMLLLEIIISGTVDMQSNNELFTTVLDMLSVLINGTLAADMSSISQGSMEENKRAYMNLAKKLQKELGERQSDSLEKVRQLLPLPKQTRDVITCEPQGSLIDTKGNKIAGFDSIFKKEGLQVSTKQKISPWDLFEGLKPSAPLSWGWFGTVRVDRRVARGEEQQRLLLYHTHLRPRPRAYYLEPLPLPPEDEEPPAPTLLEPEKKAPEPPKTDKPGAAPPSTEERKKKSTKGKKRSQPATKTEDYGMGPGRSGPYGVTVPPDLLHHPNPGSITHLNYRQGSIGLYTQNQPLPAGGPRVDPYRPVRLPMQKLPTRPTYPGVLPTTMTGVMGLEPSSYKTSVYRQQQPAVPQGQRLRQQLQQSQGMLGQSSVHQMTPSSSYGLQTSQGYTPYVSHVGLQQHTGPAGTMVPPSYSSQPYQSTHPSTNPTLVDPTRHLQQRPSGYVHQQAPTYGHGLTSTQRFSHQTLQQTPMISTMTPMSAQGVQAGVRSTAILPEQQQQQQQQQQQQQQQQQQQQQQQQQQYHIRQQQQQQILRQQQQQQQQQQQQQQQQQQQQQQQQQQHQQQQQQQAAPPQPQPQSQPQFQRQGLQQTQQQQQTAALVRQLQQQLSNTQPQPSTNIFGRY
UniProt Q92997: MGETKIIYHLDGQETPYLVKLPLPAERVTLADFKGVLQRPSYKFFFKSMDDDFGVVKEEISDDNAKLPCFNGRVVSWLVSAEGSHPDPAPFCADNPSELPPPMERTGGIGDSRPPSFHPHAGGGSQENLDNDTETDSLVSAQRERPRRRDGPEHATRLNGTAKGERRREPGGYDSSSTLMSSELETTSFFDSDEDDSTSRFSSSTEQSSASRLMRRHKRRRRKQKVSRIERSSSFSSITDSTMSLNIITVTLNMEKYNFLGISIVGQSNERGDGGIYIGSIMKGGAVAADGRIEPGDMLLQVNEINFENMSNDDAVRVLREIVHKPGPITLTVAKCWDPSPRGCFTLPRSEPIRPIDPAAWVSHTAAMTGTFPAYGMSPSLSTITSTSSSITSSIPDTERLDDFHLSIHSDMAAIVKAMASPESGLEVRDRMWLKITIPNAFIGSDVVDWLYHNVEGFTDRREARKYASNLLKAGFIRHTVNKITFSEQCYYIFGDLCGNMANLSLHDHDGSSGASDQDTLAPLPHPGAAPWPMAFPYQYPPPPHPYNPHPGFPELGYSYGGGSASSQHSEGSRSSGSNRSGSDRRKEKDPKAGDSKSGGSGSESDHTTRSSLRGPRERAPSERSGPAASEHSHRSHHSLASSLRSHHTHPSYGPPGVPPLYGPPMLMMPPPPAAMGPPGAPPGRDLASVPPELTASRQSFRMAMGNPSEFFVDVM
UniProt Q92667: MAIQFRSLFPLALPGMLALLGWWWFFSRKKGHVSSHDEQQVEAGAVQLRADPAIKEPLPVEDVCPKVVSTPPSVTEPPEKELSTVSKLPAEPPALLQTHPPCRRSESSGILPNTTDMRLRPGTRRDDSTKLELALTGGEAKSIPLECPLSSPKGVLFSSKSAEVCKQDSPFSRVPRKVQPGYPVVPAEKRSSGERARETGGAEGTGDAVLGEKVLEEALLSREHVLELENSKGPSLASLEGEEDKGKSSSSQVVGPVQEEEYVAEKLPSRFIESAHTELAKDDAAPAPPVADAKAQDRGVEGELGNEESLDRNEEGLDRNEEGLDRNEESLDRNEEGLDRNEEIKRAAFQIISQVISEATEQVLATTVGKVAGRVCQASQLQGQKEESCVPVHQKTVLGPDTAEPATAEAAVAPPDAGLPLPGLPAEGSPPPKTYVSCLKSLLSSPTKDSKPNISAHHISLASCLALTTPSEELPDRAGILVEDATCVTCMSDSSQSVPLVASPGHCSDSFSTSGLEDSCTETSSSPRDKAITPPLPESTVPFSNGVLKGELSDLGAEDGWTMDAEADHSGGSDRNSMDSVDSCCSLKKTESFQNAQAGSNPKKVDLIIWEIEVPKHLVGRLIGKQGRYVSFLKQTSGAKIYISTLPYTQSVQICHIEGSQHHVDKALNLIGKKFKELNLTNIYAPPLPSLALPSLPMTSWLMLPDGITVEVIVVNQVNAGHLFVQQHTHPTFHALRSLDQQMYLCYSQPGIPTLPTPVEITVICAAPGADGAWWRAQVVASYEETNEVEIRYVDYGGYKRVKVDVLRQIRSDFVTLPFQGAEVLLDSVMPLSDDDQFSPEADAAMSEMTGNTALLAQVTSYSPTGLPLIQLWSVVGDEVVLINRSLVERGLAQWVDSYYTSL
UniProt Q92597: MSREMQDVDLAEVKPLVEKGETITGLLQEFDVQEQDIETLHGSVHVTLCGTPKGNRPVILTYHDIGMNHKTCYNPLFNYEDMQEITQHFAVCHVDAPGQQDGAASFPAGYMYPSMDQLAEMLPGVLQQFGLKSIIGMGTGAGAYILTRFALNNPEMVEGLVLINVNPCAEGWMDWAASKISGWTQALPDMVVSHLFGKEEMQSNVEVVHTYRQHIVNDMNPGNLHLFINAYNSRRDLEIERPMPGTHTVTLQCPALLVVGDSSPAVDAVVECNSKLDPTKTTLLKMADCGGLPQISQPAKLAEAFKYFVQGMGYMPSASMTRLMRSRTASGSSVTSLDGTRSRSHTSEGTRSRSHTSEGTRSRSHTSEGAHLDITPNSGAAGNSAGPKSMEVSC
UniProt Q96FW1, whole entry, looked up: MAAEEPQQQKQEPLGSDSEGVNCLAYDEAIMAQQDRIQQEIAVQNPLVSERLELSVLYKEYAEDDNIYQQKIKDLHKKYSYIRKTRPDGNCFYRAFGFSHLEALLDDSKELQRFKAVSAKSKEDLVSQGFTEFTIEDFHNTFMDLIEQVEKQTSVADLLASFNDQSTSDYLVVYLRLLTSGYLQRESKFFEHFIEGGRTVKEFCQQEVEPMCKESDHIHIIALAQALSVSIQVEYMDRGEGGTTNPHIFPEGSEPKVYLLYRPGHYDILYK
UniProt Q96GC9: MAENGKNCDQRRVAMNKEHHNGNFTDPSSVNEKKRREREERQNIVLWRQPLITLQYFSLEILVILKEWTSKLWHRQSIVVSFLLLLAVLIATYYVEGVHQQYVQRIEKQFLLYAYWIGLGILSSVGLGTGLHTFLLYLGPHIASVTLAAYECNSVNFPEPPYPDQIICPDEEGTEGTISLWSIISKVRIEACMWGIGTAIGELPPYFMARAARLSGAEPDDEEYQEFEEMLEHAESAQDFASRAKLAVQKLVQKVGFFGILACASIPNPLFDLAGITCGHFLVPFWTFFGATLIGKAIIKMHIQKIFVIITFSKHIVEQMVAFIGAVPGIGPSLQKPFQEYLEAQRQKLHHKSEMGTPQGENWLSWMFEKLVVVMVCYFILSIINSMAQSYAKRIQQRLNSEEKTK

Compound in this assay: COC(=O)/C=C/c1ccccc1 [methyl cinnamate]
As to the kind of experiment: log2 ratio of iodoacetamide-alkyne labeling of the cysteine site, DMSO over compound (competition); higher = stronger covalent engagement of the cysteine by the compound, active = 1 or more. As to conditions: 500 µM; treatment time 1 h; system: HEK293T cell lysate. The gist of the method:
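HEK293T lysate at 2 mg/mL was treated with vehicle or electrophile (500 µM) for 1 h at ambient temperature, then labelled with iodoacetamide alkyne (1 h), clicked to sCIP-TMT reagents, pooled, digested with trypsin overnight at 37 °C, enriched on streptavidin and eluted with acid. Peptides were analysed by Orbitrap Eclipse LC-MS/MS with FAIMS and quantified in FragPipe, using duplicate channels and three replicates, with cysteines quantified in only one replicate excluded. The log2 competition ratio for each cysteine is the mean control-channel reporter intensity divided by the mean compound-channel reporter intensity.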
Regarding EDC3 C47 (UniProt Q96F86), the “log2 ratio of iodoacetamide-alkyne labeling” value (“log2 ratio” below) was inactive: 0.205.

As for FAF2 C194 (UniProt Q96CS3), the “log2 ratio” value was inactive: 0.124.

Consider RAD51AP1 C254 (UniProt Q96B01), for which the “log2 ratio” value is inactive: 0.306.

Take UPF1 C531 (UniProt Q92900): the “log2 ratio” value is inactive: -0.172.

Take DPF2 C374 (UniProt Q92785): the “log2 ratio” value is inactive: 0.0459.

With MED12 C83 (UniProt Q93074), the “log2 ratio” value was inactive: 0.406.

On to DVL3 C92 (UniProt Q92997), for which the “log2 ratio” value is inactive: 0.202.

Take UniProt Q92879_C62: the “log2 ratio” value was inactive: 0.222.

As for AKAP1 C165 (UniProt Q92667), the “log2 ratio” value is inactive: 0.325.

For the target EDC3 C413 (UniProt Q96F86), the “log2 ratio” value was inactive: -0.236.

In the case of EDC3 C410 (UniProt Q96F86), the “log2 ratio” value was inactive: 0.087.

NDRG1 C272 (UniProt Q92597): the “log2 ratio” value was inactive: -0.0355.

For OTUB1 C91 (UniProt Q96FW1), the “log2 ratio” value is inactive: 0.0768.

UniProt Q96GC9_C8: the “log2 ratio” value is inactive: 0.21.
